Data reported in PMC11534337.
These are yes or no findings as the source states them, for the method shown. In cells and extracts the contact can be indirect. Some binding calls cover weakened binding; strength is not graded here. For some assays here: Sequences can lack the tags named with a protein.

By UniProt entry, the sequences of proteins in these tests, tags left out.
UniProt P27361: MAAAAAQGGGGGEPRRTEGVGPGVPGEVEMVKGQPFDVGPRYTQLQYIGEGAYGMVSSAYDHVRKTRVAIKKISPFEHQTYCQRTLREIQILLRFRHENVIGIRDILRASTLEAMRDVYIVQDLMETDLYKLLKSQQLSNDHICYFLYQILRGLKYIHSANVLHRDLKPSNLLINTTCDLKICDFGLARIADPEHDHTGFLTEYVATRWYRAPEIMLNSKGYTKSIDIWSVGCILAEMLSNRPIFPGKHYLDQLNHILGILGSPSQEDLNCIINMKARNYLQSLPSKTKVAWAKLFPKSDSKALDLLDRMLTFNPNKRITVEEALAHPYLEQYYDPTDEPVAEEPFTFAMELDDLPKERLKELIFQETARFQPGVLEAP
UniProt Q63844: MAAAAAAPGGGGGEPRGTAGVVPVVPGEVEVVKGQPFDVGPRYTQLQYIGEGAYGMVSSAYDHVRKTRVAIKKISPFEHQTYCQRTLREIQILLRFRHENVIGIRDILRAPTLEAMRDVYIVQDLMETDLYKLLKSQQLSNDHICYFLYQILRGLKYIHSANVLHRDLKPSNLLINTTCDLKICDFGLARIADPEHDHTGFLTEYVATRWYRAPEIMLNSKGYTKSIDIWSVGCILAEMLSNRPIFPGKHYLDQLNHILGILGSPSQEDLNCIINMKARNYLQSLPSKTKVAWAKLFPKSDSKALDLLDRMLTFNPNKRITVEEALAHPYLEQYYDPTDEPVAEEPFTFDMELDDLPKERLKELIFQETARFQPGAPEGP
UniProt P28482: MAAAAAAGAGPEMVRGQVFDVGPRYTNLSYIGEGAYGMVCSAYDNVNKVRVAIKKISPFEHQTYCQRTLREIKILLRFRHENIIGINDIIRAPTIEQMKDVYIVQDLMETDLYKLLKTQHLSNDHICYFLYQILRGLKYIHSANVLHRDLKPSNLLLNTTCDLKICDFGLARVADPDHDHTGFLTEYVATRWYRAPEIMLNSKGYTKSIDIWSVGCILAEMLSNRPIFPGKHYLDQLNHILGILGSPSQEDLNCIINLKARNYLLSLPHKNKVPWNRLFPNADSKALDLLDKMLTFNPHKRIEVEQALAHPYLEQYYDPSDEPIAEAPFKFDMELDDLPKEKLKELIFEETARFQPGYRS
UniProt P63085: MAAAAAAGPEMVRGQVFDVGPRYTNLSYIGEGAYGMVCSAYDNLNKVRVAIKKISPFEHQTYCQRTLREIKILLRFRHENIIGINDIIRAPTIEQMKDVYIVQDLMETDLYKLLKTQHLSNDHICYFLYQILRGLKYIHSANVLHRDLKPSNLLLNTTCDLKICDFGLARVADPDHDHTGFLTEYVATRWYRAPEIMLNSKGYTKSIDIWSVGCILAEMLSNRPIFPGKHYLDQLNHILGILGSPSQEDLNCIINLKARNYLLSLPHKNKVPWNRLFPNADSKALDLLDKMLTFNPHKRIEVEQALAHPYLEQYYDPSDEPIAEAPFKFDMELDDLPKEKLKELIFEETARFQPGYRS
UniProt P26369: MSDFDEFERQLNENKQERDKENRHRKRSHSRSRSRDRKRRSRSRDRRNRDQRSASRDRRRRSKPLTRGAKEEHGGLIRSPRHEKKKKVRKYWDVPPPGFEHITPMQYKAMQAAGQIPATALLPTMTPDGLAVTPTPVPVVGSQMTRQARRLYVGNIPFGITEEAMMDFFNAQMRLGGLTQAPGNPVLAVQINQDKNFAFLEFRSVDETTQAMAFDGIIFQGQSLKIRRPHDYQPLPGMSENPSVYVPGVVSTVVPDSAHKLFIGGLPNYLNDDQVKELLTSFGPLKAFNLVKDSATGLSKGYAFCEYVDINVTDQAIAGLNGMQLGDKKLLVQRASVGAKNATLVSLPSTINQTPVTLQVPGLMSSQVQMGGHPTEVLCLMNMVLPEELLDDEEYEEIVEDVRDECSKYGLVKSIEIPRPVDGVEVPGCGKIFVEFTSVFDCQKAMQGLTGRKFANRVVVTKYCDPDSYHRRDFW

Legend:
Flag-SIRT4 WT = molecular target: T1, Flag-SIRT4 WT (UniProt Q9Y6E7); test: co-IP; HK2 cells expressing Flag-SIRT4 proteins, with or without TGF-β1 (2 ng/ml, 12 hr); immunoprecipitated Flag-SIRT4 blotted with anti-ERK1/2 antibody
T1 sequence: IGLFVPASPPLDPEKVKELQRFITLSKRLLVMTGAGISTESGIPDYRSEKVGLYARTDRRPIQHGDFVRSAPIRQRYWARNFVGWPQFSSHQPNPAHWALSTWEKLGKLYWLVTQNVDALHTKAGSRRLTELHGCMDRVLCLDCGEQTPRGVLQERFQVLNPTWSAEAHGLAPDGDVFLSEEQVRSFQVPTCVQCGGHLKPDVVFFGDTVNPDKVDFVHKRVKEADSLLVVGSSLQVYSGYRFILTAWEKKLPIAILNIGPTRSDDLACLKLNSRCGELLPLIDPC

[1] = molecular target: T2, SIRT4 (mouse (endogenous in primary mouse TECs and mouse kidney)) (UniProt Q8R216); test: co-IP; primary mouse TECs (WT) treated with TGF-β1; lysate in 20 mM Tris-HCl pH 8.0, 100 mM NaCl, 1 mM EDTA, 0.5% NP-40; IP with anti-SIRT4 antibody; endogenous proteins
T2 sequence: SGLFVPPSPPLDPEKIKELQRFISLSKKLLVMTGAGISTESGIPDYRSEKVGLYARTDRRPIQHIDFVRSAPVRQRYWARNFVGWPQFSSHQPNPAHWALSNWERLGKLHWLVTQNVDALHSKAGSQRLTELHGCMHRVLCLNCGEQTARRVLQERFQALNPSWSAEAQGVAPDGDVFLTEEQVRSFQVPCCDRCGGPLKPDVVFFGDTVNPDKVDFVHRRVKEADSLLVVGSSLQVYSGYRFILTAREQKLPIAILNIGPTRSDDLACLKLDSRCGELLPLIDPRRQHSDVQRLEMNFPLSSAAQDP

HA-Sirt4 [2] = molecular target: T3, HA-Sirt4 (UniProt Q8R216); test: co-IP; WT TECs transfected with Flag-U2af2 WT and HA-Sirt4 under TGF-β1 stimulation (doses); IP with anti-HA antibody
T3 sequence: T2 sequence

HA-Sirt4 [3] = molecular target: T3, HA-Sirt4; test: co-IP; WT TECs transfected with HA-Sirt4 and/or Flag-U2af2, then TGF-β1; IP with anti-SIRT4 antibody
[4] = molecular target: T2, SIRT4 (mouse (endogenous in primary mouse TECs and mouse kidney)); test: co-IP; whole-kidney lysates of sham, uIRI and UUO mice; IP with anti-SIRT4 antibody; endogenous proteins

Substance	binding (Flag-SIRT4 WT)	binding [1]	also measured
ERK1 (from UniProt P27361 1-379)	binds	–	–
ERK1 (from UniProt Q63844 1-380)	–	binds	–
ERK2 (from UniProt P28482 1-360)	binds	–	–
ERK2 (from UniProt P63085 1-358)	–	binds	–
Flag-U2af2 WT (from UniProt P26369 1-475)	–	–	binding (HA-Sirt4 [2]): binds; binding (HA-Sirt4 [3]): binds
U2AF2 (from UniProt P26369 1-475)	–	binds	binding [4]: binds
